Assay results taken from PMC5323126.
These are yes or no findings as the source states them, for the method shown. Binding seen in cells or lysates may run through a third protein. Binding can be weak; no strength is given. For part of these data: Where a sequence is shown, tags or fusion partners need not be part of it.

The chains behind the UniProt entries cited, without tags or fusion partners.
UniProt Q14258: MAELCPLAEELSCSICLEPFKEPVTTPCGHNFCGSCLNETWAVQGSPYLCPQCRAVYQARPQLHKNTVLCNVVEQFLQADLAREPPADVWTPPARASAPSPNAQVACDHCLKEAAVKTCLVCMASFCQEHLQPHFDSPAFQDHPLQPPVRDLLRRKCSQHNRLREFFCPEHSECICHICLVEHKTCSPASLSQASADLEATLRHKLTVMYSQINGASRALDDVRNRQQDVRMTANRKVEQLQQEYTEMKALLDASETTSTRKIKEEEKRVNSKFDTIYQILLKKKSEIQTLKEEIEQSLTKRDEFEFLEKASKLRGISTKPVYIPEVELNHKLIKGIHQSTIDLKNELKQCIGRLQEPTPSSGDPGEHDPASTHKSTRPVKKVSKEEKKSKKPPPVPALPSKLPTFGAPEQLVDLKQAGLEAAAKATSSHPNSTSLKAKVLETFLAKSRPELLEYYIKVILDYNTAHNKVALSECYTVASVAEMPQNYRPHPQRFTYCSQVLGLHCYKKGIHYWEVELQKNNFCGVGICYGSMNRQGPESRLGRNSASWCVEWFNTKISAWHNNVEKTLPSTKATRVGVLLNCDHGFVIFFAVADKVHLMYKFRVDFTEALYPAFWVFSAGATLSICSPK

Key:
[1] = target: endogenous ERG in VCaP cells (N-terminally truncated ERG from the TMPRSS2-ERG fusion gene) (human (endogenous in VCaP)) (UniProt P11308); assay: co-IP; endogenous ERG immunoprecipitated from VCaP cells, TRIM25 detected (Supplementary Figure 1C)
[2] = target: GST-TRIM25 (wildtype) (UniProt Q14258); assay: pull-down; GST-TRIM25 variants (purified from E. coli) as bait; whole VCaP cell extract; endogenous ERG detected by immunoblot; only the target purified
[3] = target: Flag-tagged TRIM25 deletion mutant lacking the SPRY domain; assay: co-IP; Flag-tagged TRIM25 variants and full-length ERG-HA ectopically expressed in HEK293T

In the case of “Tripartite motif-containing protein 25 (TRIM25), endogenous in VCaP cells (from UniProt Q14258 1-630)”, the binding [1] is reported as “binds”.

For “endogenous ERG in VCaP cells (N-terminally truncated ERG from the TMPRSS2-ERG fusion gene) (from UniProt P11308)”, the binding [2] was “binds”.

B1: ERG-HA (full-length HA-tagged ERG) (protein, UniProt P11308 1-479)
chain: MASTIKEALSVVSEDQSLFECAYGTPHLAKTEMTASSSSDYGQTSKMSPRVPQQDWLSQPPARVTIKMECNPSQVNGSRNSPDECSVAKGGKMVGSPDTVGMNYGSYMEEKHMPPPNMTTNERRVIVPADPTLWSTDHVRQWLEWAVKEYGLPDVNILLFQNIDGKELCKMTKDDFQRLTPSYNADILLSHLHYLRETPLPHLTSDDVDKALQNSPRLMHARNTGGAAFIFPNTSVYPEATQRITTRPDLPYEPPRRSAWTGHGHPTPQSKAAQPSPSTVPKTEDQRPQLDPYQILGPTSSRLANPGSGQIQLWQFLLELLSDSSNSSCITWEGTNGEFKMTDPDEVARRWGERKSKPNMNYDKLSRALRYYYDKNIMTKVHGKRYAYKFDFHGIAQALQPHPPESSLYKYPSDLPYMGSYHAHPQKMNFVAPHPPALPVTSSSFFAAPNPYWNSPTGGIYPNTRLPTSHMPSHLGTYY
For B1, the binding [3] was “binds”.
